PubChem BioAssay AID493246, Drosophila RNAi Screening Center – 2011
The screen tested about 21,000 reagents; shown is an unselected part of those that have a named target and a result. Of all reagents, 429 (2%) got an active call. 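Values are raw and not normalised between plates; calls rest on per-plate z-scores that were not deposited.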 The numbers tell different reagents against one gene apart. No sequences are given here. The record does not give: the amount of reagent, the time to read-out.

- Aim: 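Identify essential fly genes by loss of cell viability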 (primary screen)
- Cells: Drosophila Kc and S2R+ cells
- Reagents: long dsRNA against Drosophila genes
- Measured: 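Cell number per well after knock-down, printed as raw plate values; calls were based on per-plate z-scores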
- Reading the numbers: Kc cell number and S2R+ cell number: higher = more cells remaining
- Call rule: 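Counted as a hit if cell number falls by a z-score of at least 3 within its plate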

| gene knocked down | reagent no. | Kc cell number, rep 1 | Kc cell number, rep 2 | S2R+ cell number, rep 1 | S2R+ cell number, rep 2 | activity call |
| --- | --- | --- | --- | --- | --- | --- |
| wal | 1 | 1.20e6 | 1.39e6 | 1.12e6 | 1.16e6 | inactive |
| Drl-2 | 1 | 1.55e6 | 1.53e6 | 1.02e6 | 1.15e6 | inactive |
| Drl-2 | 2 | 1.55e6 | 1.65e6 | 1.38e6 | 1.42e6 | inactive |
| Drl-2 | 3 | 1.54e6 | 1.56e6 | 1.28e6 | 1.36e6 | inactive |
| ClC-b | 1 | 1.61e6 | 1.75e6 | 1.36e6 | 1.52e6 | inactive |
| Lkr | 1 | 1.46e6 | 1.92e6 | 1.13e6 | 1.15e6 | inactive |
| PIG-Wb | 1 | 1.42e6 | 1.32e6 | 1.05e6 | 1.30e6 | inactive |
| CG4455 | 1 | 1.26e6 | 1.28e6 | 1.28e6 | 1.38e6 | inactive |
| smid | 1 | 1.35e6 | 1.27e6 | 1.15e6 | 1.19e6 | inactive |
| Surf4 | 1 | 1.24e6 | 1.35e6 | 1.15e6 | 1.25e6 | inactive |
| CG4730 | 1 | 1.61e6 | 1.56e6 | 9.68e5 | 1.08e6 | inactive |
| Tmlh | 1 | 1.37e6 | 1.34e6 | 1.02e6 | 1.15e6 | inactive |
| Sf3b5 | 1 | 1.21e6 | 1.38e6 | 8.54e5 | 1.04e6 | inactive |
| CG15458 | 1 | 1.37e6 | 1.41e6 | 1.05e6 | 1.19e6 | inactive |
| nAChRbeta3 | 1 | 1.19e6 | 1.61e6 | 1.02e6 | 1.09e6 | inactive |
| CG9577 | 1 | 1.51e6 | 1.53e6 | 1.06e6 | 1.18e6 | inactive |
| Ran-like | 1 | 1.56e6 | 1.57e6 | 1.24e6 | 1.34e6 | inactive |
| Alp6 | 1 | 1.32e6 | 1.33e6 | 1.14e6 | 1.08e6 | inactive |
| Papst2 | 1 | 1.47e6 | 1.52e6 | 1.28e6 | 1.31e6 | inactive |
| Pak3 | 1 | 1.52e6 | 1.56e6 | 1.11e6 | 1.13e6 | inactive |
| CtsF | 1 | 1.56e6 | 1.54e6 | 1.17e6 | 1.37e6 | inactive |
| CtsF | 2 | 1.70e6 | 1.75e6 | 1.43e6 | 1.49e6 | inactive |
| CtsF | 3 | 1.59e6 | 1.74e6 | 1.28e6 | 1.46e6 | inactive |
| CG5742 | 1 | 1.34e6 | 1.37e6 | 1.20e6 | 1.25e6 | inactive |
| Pp1-87B | 1 | 1.24e6 | 1.32e6 | 8.11e5 | 8.93e5 | inactive |
| Sema2b | 1 | 5.97e5 | – | 7.70e5 | – | inactive |
| Sema2b | 2 | 6.35e5 | – | 7.50e5 | – | inactive |
| Sema2b | 3 | 1.91e6 | 1.91e6 | 1.18e6 | 1.39e6 | inactive |
| blanks | 1 | 1.37e6 | 1.37e6 | 1.25e6 | 1.28e6 | inactive |
| CG33267 | 1 | 1.36e6 | 1.51e6 | 1.09e6 | 1.20e6 | inactive |
| fz | 1 | 1.48e6 | 1.53e6 | 1.26e6 | 1.43e6 | inactive |
| CG13544 | 1 | 1.59e6 | 1.67e6 | 1.39e6 | 1.49e6 | inactive |
| CG9903 | 1 | 1.71e6 | 1.70e6 | 1.04e6 | 1.20e6 | inactive |
| Cdk5 | 1 | 1.30e6 | 1.46e6 | 1.16e6 | 1.09e6 | inactive |
| CG10845 | 1 | 1.58e6 | 1.55e6 | 9.46e5 | 1.03e6 | inactive |
| CG7536 | 1 | 1.42e6 | 1.48e6 | 1.01e6 | 1.18e6 | inactive |
| Trmt112 | 1 | 1.95e6 | 1.72e6 | 1.48e6 | 1.61e6 | inactive |
| Acsx1L | 1 | 1.19e6 | 1.29e6 | 1.13e6 | 1.21e6 | inactive |
| Smu1 | 1 | 1.47e6 | 1.54e6 | 1.11e6 | 1.20e6 | inactive |
| Sans | 1 | 1.15e6 | 1.39e6 | 1.26e6 | 1.10e6 | inactive |
| Slc25A46a | 1 | 6.82e5 | – | 8.71e5 | – | inactive |
| CG9849 | 1 | 1.71e6 | 1.82e6 | 1.43e6 | 1.52e6 | inactive |
| CG42715 (retired record) | 1 | 1.73e6 | 1.83e6 | 1.02e6 | 1.28e6 | inactive |
| Akr1B | 1 | 1.42e6 | 1.53e6 | 1.15e6 | 1.06e6 | inactive |
| Peritrophin-A | 1 | 1.48e6 | 1.53e6 | 1.05e6 | 1.15e6 | inactive |
| Mvd | 1 | 5.85e5 | – | 9.43e5 | – | inactive |
| Rab21 | 1 | 1.65e6 | 1.77e6 | 1.11e6 | 1.23e6 | inactive |
| saturn | 1 | 1.47e6 | 1.49e6 | 1.15e6 | 1.29e6 | inactive |
| Cog6 | 1 | 1.25e6 | 1.40e6 | 9.67e5 | 8.53e5 | inactive |
| CG3600 (retired record) | 1 | 1.48e6 | 1.49e6 | 1.00e6 | 1.05e6 | inactive |
| CG7653 | 1 | 1.62e6 | 1.82e6 | 1.20e6 | 1.42e6 | inactive |
| Vps26 | 1 | 5.14e5 | – | 6.65e5 | – | inactive |
| sgll | 1 | 1.38e6 | 1.47e6 | 1.25e6 | 1.32e6 | inactive |
| CG34367 | 1 | 1.64e6 | 1.68e6 | 1.16e6 | 1.31e6 | inactive |
| CG34367 | 2 | 1.49e6 | 1.55e6 | 1.17e6 | 1.28e6 | inactive |
| Arl1 | 1 | 1.21e6 | 1.25e6 | 1.27e6 | 1.36e6 | inactive |
| CG32027 (retired record) | 1 | 1.61e6 | 1.73e6 | 1.24e6 | 1.42e6 | inactive |
| Src64B | 1 | 1.34e6 | 1.38e6 | 1.10e6 | 1.11e6 | inactive |
| lncRNA:CR32658 | 1 | 1.67e6 | 1.53e6 | 1.11e6 | 1.23e6 | inactive |
| CG17010 | 1 | 1.38e6 | 1.41e6 | 1.17e6 | 1.24e6 | inactive |
| coro | 1 | 1.52e6 | 1.54e6 | 1.13e6 | 1.23e6 | inactive |
| CycA | 1 | 1.11e6 | 1.28e6 | 8.67e5 | 1.01e6 | inactive |
| CycA | 2 | 1.20e6 | 1.38e6 | 1.06e6 | 9.73e5 | inactive |
| Cpr47Ec | 1 | 1.50e6 | 1.61e6 | 1.31e6 | 1.47e6 | inactive |
| CG9346 | 1 | 1.34e6 | 1.48e6 | 1.08e6 | 1.12e6 | inactive |
| holn1 | 1 | 1.37e6 | 1.44e6 | 1.23e6 | 1.34e6 | inactive |
| CG14762 | 1 | 1.44e6 | 1.42e6 | 9.67e5 | 1.04e6 | inactive |
| CG14762 | 2 | 1.45e6 | 1.59e6 | 1.19e6 | 1.28e6 | inactive |
| l(1)G0289 | 1 | 6.02e5 | – | 9.81e5 | – | inactive |
| Fhos | 1 | 1.39e6 | 1.42e6 | 1.01e6 | 1.13e6 | inactive |
| Fhos | 2 | 1.46e6 | 1.46e6 | 1.26e6 | 1.19e6 | inactive |
| Fhos | 3 | 1.41e6 | 1.49e6 | 1.30e6 | 1.20e6 | inactive |
| Fhos | 4 | 1.50e6 | 1.33e6 | 1.26e6 | 1.30e6 | inactive |
| Hs3st-B | 1 | 1.55e6 | 1.58e6 | 1.11e6 | 1.21e6 | inactive |
| CG15594 | 1 | 1.53e6 | 1.72e6 | 1.28e6 | 1.41e6 | inactive |

Quoted from above (5 entries):
| gene knocked down | reagent no. | Kc cell number, rep 1 | Kc cell number, rep 2 | S2R+ cell number, rep 1 | S2R+ cell number, rep 2 | activity call |
| --- | --- | --- | --- | --- | --- | --- |
| CG9577 | 1 | 1.51e6 | 1.53e6 | 1.06e6 | 1.18e6 | inactive |
| Ran-like | 1 | 1.56e6 | 1.57e6 | 1.24e6 | 1.34e6 | inactive |
| Alp6 | 1 | 1.32e6 | 1.33e6 | 1.14e6 | 1.08e6 | inactive |
| Papst2 | 1 | 1.47e6 | 1.52e6 | 1.28e6 | 1.31e6 | inactive |
| Pak3 | 1 | 1.52e6 | 1.56e6 | 1.11e6 | 1.13e6 | inactive |
